Measurements from patent US20160090556A1, “PRODUCTS COMPRISING MALODOR REDUCTION MATERIALS” (The Procter & Gamble Company, priority 2014, published 2016).

Assay: Liquid dish neat product liquid-air partition coefficient
Format: physicochemical

SMILES: O=C(c1ccccc1)c1ccccc1 [Material 655]
- Log of liquid dish neat product liquid-air partition coefficient (Comment Code K/L): K (Log of liquid dish neat product liquid-air partition coefficient greater than or equal to −7)
